Test results published in the supplement of paper PMC12067093, “Discovery and optimisation of a covalent ligand for TRIM25 and its application to targeted protein ubiquitination” (Chemical Science, 2025).
The other results are listed elsewhere or left out.

Protein sequences, listed by entry. Tags and fused reporters are not part of them. Lines headed by an entry give the natural chain unless they say otherwise; changes in a name come on top.
UniProt Q13905: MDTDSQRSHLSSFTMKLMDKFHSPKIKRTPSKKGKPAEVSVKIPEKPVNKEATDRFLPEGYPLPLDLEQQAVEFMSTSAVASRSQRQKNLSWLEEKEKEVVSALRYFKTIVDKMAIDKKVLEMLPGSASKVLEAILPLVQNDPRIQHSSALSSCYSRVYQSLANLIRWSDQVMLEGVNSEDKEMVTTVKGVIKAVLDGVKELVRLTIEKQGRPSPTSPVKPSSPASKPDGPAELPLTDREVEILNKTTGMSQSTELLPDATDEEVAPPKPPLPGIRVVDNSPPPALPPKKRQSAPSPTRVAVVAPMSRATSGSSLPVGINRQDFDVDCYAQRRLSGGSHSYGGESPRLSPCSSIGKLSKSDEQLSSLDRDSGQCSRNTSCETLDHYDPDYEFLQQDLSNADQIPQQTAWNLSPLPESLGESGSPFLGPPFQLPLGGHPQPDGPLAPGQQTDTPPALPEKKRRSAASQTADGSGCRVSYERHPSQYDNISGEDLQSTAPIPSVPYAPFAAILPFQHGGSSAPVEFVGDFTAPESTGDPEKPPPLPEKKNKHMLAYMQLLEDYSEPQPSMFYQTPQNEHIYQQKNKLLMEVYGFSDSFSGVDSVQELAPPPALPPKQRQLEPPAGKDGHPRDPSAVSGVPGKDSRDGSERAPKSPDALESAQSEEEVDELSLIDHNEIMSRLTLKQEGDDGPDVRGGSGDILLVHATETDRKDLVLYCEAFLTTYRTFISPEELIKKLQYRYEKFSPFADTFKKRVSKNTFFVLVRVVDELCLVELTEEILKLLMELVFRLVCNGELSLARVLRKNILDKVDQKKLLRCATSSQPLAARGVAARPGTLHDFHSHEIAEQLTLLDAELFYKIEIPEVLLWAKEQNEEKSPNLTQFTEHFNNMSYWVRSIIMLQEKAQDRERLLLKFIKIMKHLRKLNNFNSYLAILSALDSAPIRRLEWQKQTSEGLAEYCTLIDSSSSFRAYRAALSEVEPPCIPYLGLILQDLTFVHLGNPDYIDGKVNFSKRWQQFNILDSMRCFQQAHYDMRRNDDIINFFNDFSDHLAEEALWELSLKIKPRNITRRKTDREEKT
UniProt Q96PM5: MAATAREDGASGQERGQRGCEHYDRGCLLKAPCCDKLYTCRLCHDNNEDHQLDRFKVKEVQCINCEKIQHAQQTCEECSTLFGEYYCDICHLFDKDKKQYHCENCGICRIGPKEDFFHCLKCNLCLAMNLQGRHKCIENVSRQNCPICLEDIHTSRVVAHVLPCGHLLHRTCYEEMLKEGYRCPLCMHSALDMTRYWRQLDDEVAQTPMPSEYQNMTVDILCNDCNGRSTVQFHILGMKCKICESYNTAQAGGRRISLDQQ
UniProt Q9HBH5: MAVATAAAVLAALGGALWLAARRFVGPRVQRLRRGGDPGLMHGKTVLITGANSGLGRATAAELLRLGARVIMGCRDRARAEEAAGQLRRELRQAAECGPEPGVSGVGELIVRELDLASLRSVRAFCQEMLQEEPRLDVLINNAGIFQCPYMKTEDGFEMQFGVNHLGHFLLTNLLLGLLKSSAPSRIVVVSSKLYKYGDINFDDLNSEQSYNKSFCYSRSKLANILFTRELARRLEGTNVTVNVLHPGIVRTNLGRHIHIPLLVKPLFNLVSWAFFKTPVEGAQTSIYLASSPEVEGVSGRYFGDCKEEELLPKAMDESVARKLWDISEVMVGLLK
UniProt Q06330: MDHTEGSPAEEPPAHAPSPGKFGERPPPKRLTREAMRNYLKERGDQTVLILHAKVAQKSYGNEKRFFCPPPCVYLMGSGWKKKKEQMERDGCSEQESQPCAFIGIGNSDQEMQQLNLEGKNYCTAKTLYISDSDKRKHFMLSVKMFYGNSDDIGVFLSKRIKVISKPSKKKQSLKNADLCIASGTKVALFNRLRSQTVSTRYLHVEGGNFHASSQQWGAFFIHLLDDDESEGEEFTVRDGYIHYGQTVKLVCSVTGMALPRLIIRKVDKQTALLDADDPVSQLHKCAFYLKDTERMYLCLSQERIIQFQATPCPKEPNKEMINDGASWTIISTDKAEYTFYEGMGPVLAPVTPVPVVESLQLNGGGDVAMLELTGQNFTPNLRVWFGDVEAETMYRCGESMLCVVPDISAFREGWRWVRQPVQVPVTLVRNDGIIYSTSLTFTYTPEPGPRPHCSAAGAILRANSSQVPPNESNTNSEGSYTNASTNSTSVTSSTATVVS
UniProt P62834: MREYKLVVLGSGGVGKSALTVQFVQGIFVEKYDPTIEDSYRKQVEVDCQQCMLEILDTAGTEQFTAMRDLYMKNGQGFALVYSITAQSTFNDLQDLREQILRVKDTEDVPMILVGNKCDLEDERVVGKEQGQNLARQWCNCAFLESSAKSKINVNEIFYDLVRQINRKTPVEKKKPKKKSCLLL
UniProt Q9Y4C8: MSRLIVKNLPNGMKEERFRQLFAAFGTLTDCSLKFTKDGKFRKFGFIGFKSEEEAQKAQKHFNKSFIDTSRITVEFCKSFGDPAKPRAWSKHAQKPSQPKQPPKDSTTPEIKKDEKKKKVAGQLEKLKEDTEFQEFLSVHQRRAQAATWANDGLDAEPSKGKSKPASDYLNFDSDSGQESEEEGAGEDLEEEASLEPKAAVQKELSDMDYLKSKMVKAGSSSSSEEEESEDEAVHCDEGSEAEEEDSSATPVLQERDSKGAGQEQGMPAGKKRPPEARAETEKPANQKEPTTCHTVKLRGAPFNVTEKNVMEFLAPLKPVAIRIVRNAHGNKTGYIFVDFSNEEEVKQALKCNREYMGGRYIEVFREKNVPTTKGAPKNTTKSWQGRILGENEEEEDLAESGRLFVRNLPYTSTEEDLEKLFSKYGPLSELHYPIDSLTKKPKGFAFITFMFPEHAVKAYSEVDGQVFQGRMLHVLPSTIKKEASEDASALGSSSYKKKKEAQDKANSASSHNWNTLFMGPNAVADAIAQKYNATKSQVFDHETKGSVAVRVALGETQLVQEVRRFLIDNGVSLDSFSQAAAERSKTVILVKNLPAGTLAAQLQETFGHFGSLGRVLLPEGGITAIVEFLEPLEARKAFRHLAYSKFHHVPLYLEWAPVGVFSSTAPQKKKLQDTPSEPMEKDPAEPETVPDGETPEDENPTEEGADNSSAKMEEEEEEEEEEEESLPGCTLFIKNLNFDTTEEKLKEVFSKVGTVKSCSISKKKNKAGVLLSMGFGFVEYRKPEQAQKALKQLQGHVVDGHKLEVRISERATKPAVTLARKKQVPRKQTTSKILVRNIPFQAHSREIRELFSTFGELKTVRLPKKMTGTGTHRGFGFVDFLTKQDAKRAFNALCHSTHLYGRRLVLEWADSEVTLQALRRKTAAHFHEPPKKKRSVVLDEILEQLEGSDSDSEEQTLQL
UniProt P42696: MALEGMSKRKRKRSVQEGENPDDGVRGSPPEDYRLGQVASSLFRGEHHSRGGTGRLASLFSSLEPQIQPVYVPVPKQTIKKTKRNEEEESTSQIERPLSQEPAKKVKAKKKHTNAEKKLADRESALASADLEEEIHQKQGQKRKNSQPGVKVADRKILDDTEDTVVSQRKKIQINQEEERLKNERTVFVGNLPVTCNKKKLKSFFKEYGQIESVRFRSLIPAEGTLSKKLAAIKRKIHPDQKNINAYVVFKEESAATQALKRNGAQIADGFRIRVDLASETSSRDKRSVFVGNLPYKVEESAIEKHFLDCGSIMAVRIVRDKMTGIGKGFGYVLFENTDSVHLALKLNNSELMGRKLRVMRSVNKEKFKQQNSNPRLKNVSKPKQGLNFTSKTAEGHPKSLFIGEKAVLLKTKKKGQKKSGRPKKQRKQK
UniProt Q9BYM8: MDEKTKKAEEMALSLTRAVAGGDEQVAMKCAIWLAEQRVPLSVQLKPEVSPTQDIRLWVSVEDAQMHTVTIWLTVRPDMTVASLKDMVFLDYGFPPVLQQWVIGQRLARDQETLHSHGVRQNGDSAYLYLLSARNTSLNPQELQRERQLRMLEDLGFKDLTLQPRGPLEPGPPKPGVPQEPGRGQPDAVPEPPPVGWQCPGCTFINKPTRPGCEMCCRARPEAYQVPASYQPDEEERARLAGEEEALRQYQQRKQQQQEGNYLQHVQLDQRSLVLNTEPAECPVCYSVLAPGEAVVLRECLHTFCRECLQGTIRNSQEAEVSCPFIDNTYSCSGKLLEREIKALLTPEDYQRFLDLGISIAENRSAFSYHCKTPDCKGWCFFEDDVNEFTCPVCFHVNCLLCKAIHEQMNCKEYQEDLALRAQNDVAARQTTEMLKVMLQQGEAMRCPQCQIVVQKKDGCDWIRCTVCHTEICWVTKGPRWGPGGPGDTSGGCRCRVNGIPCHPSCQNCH
UniProt Q8TDY2, whole entry, looked up: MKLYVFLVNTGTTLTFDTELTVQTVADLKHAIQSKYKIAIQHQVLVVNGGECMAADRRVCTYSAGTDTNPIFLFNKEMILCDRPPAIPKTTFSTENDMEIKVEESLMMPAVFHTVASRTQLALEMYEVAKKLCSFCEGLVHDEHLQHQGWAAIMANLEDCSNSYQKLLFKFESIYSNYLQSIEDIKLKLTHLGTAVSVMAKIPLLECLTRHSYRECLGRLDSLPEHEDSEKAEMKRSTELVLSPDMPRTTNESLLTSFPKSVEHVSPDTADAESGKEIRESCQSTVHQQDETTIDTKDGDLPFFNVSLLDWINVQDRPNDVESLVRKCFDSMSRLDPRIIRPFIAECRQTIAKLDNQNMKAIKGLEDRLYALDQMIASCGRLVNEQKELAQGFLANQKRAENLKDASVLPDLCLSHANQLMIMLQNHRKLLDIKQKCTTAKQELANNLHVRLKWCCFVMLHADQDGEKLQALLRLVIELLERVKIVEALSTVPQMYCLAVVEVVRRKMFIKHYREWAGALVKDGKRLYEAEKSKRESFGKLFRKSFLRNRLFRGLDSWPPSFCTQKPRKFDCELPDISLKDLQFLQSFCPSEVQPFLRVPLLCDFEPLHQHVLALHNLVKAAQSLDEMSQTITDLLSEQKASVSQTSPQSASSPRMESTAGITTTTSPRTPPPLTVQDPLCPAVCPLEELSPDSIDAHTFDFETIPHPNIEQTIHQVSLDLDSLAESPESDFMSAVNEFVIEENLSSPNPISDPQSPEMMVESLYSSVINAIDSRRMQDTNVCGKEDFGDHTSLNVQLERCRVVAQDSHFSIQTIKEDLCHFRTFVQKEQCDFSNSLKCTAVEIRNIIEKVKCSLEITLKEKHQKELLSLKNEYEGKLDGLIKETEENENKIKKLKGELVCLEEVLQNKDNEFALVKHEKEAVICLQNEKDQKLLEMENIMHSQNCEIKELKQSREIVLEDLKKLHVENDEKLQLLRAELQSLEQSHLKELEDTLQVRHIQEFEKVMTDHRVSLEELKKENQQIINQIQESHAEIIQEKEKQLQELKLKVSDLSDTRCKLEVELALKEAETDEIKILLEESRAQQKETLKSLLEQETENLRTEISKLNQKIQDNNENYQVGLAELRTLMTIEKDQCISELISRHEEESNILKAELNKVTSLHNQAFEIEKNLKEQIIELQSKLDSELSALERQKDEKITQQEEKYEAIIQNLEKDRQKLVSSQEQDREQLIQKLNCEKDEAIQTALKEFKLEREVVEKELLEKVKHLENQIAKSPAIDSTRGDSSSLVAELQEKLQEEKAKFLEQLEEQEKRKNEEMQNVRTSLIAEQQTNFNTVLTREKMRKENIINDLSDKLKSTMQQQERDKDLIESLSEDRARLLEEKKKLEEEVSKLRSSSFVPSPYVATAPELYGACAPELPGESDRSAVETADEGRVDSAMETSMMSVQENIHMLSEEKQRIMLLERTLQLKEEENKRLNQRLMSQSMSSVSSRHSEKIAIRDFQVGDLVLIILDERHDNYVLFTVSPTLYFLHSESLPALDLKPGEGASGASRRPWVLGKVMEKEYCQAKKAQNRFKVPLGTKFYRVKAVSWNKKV
UniProt P46060: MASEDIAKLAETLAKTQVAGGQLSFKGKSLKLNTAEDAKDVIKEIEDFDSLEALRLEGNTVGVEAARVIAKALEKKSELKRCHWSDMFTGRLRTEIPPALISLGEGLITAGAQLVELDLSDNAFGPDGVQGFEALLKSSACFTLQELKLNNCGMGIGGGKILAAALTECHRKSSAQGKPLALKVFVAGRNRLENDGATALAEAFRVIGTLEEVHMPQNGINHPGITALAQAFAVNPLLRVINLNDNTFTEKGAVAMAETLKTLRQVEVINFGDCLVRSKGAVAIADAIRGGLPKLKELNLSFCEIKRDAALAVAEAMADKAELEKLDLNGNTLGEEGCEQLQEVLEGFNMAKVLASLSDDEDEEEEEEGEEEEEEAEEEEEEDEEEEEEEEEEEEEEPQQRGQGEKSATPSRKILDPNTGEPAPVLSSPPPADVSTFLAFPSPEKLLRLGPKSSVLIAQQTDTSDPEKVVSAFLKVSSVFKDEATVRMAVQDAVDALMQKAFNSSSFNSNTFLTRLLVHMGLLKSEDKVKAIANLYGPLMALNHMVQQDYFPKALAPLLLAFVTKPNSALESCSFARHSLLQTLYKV

Compound: Cc1cc(ccc1-c1ccccc1)C(=O)N1CCCN(CC1)C(=O)CCl [compound 10]
Test: probe-labelled cysteine peptide fold change vs DMSO (competition) (log2 fold change); higher = less target engagement (more negative = stronger competition)
Conditions: 10 µM; THP-1; incubation time: 4 h
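Note: competitive profiling in live THP-1 cells: cysteine peptides tagged with an iodoacetamide desthiobiotin (IA-DTB) probe, intensity after compound treatment relative to DMSO-treated cells.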

Target | probe-labelled cysteine peptide fold change
RAPGEF1_Q13905_958_QTSEGLAEYCTLIDSSSSFR (UniProt Q13905) | -0.103
RBFA_Q8N0V3_136_VSLTPDFSACR (UniProt Q8N0V3) | -0.0649
RANBP1_P43487_99_ICANHYITPMMELK (UniProt P43487) | 0.31
RANBP2_P49792_1375_CVSCQNLNPSNK (UniProt P49792) | 0.081
RALY_Q9UKM9_51_VAGCSVHK (UniProt Q9UKM9) | 0.122
RCHY1_Q96PM5_87_IQHAQQTCEECSTLFGEYYCDICHLFDK (UniProt Q96PM5) | -0.0605
RBM15B_Q8NDT2_323_GRPYGYPAVCEEDLMPEDDQR (UniProt Q8NDT2) | -0.123
RASA1_P20936_261_FSSLSDLIGYYSHVSCLLK (UniProt P20936) | 0.273
RANBP2_P49792_815_MICQQVEAIKK (UniProt P49792) | -0.0292
RDH14_Q9HBH5_148_LDVLINNAGIFQCPYMK (UniProt Q9HBH5) | 0.0587
RBBP5_Q15291_43_WGTLLAVGCNDGR (UniProt Q15291) | -0.0227
RBPJ_Q06330_68+72_FFCPPPCVYLMGSGWK (UniProt Q06330) | 0.0391
RAP1A_P62834_141_QWCNCAFLESSAK (UniProt P62834) | -0.322
RASA3_Q14644_144_LSEVITDTGVVCHK (UniProt Q14644) | 0.0862
RBBP7_Q16576_202_EGYGLSWNSNLSGHLLSASDDHTVCLWDINAGPK (UniProt Q16576) | 0.0794
RBM28_Q9NW13_97_NENSECPK (UniProt Q9NW13) | -0.0194
RBM19_Q9Y4C8_293_EPTTCHTVK (UniProt Q9Y4C8) | 0.0705
RANBP3_Q9H6Z4_406_VEVITGEEAESNVLQMQCK (UniProt Q9H6Z4) | 0.313
RBM14_Q96PK6_108_VIECDVVK (UniProt Q96PK6) | 0.0525
RBM34_P42696_196_TVFVGNLPVTCNK (UniProt P42696) | 0.0157

Target | probe-labelled cysteine peptide fold change
RBM10_P98175_222_CGVQNFK (UniProt P98175) | -0.0428
RBPJ_Q06330_252_LVCSVTGMALPR (UniProt Q06330) | 0.108
RAP1A_P62834_118_DTEDVPMILVGNKCDLEDERVVGK (UniProt P62834) | -0.426
RBM6_P78332_960_LACLLCR (UniProt P78332) | -0.0337
RCC2_Q9P258_337_DVACGANHTLVLDSQK (UniProt Q9P258) | -0.114
RBM12B_Q8IXT5_837_CPSDEDFR (UniProt Q8IXT5) | -0.12
RBBP7_Q16576_97_VHIPNDDAQFDASHCDSDKGEFGGFGSVTGK (UniProt Q16576) | -0.456
RAPGEF1_Q13905_1024_CFQQAHYDMR (UniProt Q13905) | -0.104
RDH14_Q9HBH5_97_QAAECGPEPGVSGVGELIVR (UniProt Q9HBH5) | -0.0913
RBCK1_Q9BYM8_493_WGPGGPGDTSGGCR (UniProt Q9BYM8) | 0.0272
RB1CC1_Q8TDY2_946_LLEMENIMHSQNCEIK (UniProt Q8TDY2) | -0.15
RASSF4_Q9H2L5_145_SDASCMSQR (UniProt Q9H2L5) | 0.115
RB1CC1_Q8TDY2_282_ESCQSTVHQQDETTIDTK (UniProt Q8TDY2) | -0.335
RCHY1_Q96PM5_148_QNCPICLEDIHTSR (UniProt Q96PM5) | 0.358
RANGAP1_P46060_573_ALAPLLLAFVTKPNSALESCSFAR (UniProt P46060) | -0.413
RBCK1_Q9BYM8_308_ECLQGTIR (UniProt Q9BYM8) | 0.0246
RANGAP1_P46060_169_ILAAALTECHRK (UniProt P46060) | -0.159
RCHY1_Q96PM5_136_CIENVSR (UniProt Q96PM5) | 0.0116
RCHY1_Q96PM5_65_EVQCINCEK (UniProt Q96PM5) | -0.0388
